This test addresses anaCyp40 with C-terminal Strep-tag (Anabaena sp. PCC 7120). Description: affinity purification with mass spectrometry; Strep-tagged anaCyp40 from whole cell lysate of AFS-anacyp40-strep (1% β-DM, 100 mM Tris pH 8.0, 50 mM NaCl) on MagStrep type3 XT beads, 60 min at 4 °C; washes up to 100 mM NaCl and 0.5% Nonidet P-40; eluted with 50 mM D-biotin; wild-type Anabaena sp. as control; lysate not treated with RNAse or DNAse; LC-MS, p < 0.05.

Results are given in words; binding and its absence hold for the method and conditions named. In cells and extracts the contact can be indirect. Here binding means that the protein was enriched with, or labelled near, the bait; the list need not be complete.

B1: L19 (protein, UniProt Q8YLK1 1-120)
chain: MSAQEIIRSIEAEQLKSNLPEIYIGDTVRVGVKIKEGEKYRVQPYEGVVIARRNGGINETITVRRVFQGVGVERVFLLHSPRIDNIKVLRRGKVRRAKLYYLRGRVGKATRIKQRFDRSL
With B1, the binding result is reported as “binds”.

B2: S2 (protein, UniProt Q8YMY2 1-265)
chain: MPVVSLAQMMESGVHFGHQTRRWNPKMSPYIYTSRNGVHIIDLVQTAHLMDEAYNYMRSQAEQGKKFLFVGTKRQAAGIIAQEAARCGSHYINQRWLGGMLTNWATIKTRVDRLKDLERREESGALDLLPKKEASMLRRELAKLQKYLGGIKTMRKVPDVVVIVDQRREYNAVQECQKLSIPIVSMLDTNCDPDVVDIPIPANDDAIRSIKLIVGKLADAIYEGRHGQLDVEEEYEDYEGSEEDYDYDETEYADSVIPEDGEEAE
For B2, the binding entry is “binds”.

For the origin of these results see publication PMC8967839.
